Some results were stated once for a whole list of compounds, not compound by compound. At least one compound was matched to its structure with a doubt left.
Test system: Mouse B16 melanoma cell
Assay: Quantification of the number of cells (alamarBlue), cell growth / cell toxicity
Type: cell-based
Details: FIG. 1; 3 days
Experimental: Mouse B16 melanoma cell was used. The cells were inoculated at 1×10^5 cells/well to a 6-well plate, and cultured with using a commercially available medium (trade name: EAGLE MEM, manufactured by Nissui Pharmaceutical Co., Ltd.) supplemented with 10% fetal bovine serum. The cells were cultured at 37° C., 5% CO2 and under completely saturated water-vapor atmosphere. […]
3 days after the addition of a solution of test compound, the medium was removed by suction. […] Thirty minutes later, the fluorescence was measured with excitation wavelength of 544 nm and measurement wavelength of 590 nm. By having the obtained number as a relative value of the cell number, the ratio of number of cells (i.e. % number of cells) for a group added with the test compound compared to a group not added with the test compound (i.e. only the solvent was added) was calculated. […] When it is less than 80%, it was determined as “toxic.”
The equal amounts of 4-trans-L-hydroxyproline and 4-cis-D-hydroxyproline were mixed to produce the mixture solution of 4-trans-L-hydroxyproline and 4-cis-D-hydroxyproline, which was then provided for the experiments. Cell culture and quantification and evaluation of number of the cells and melanin were carried out in the same manner as the Examples above. […]

Row | SMILES | concentration up to which the number of cells was not significantly different from the control (no effect on survival)
1 | O=C(O)[C@H]1C[C@H](O)CN1 (stereo in doubt) [4-trans-D-hydroxyproline] | up to 2690 ppm
2 | O=C(O)[C@@H]1C[C@@H](O)CN1 (stereo in doubt) [4-trans-L-hydroxyproline] | up to 2690 ppm

— patent US20120122951A1 (priority 2009, published 2012)
